PubChem BioAssay AID602196 – INSERM, 2012

- Screen: 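Modifiers of cisplatin sensitivity in A549 cells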
- Cells: human A549 lung cancer cells
- Reagents: siRNA pair against human genes
- Time to read-out: 48 h transfection before cisplatin; time from cisplatin to read-out not stated
- Treatment: cisplatin at a dose killing half of control-siRNA cells; exact dose and duration not given
- Read-out: 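Shift in cisplatin death relative to control siRNA, from -50 (all cells die) to +50 (no cells die); siRNAs harmful on their own scored 0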
- Direction: two-siRNA summed score (-2 to +2): higher = both siRNAs protect from cisplatin killing; -2 means both sensitise; mean protection from cisplatin (shift in death): higher = protection from cisplatin killing
- Rule for the call: 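Each siRNA scores 0 if harmful alone by LDH or WST-1, otherwise +1 if it reduces and -1 if it increases cisplatin killing; a gene is active when both siRNAs agree (sum +2 or -2)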
- Calls: active = both siRNAs shift cisplatin killing the same way; inactive = no consistent shift, or siRNA harmful alone
Here is one part, drawn at random, of about 23,000 reagents tested. Over the whole deposit, 455 (2%) got an active call. 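Active includes both protection and sensitisation; some change values fall well beyond the stated -50 to +50 range.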 Not all columns of the deposit are shown. Not stated in the record: the amount of reagent.

CDK11B [SID131505285] — two-siRNA summed score (-2 to +2) = 0; mean protection from cisplatin (shift in death) (%) = -3.4; Outcome = inactive
CDH11 [SID131504317] — two-siRNA summed score (-2 to +2) = 0; mean protection from cisplatin (shift in death) (%) = -5.7; Outcome = inactive
MYO5A [SID131516695] — two-siRNA summed score (-2 to +2) = 0; mean protection from cisplatin (shift in death) (%) = 11.4; Outcome = inactive
APOA5 [SID131508127] — two-siRNA summed score (-2 to +2) = 0; mean protection from cisplatin (shift in death) (%) = 0.7; Outcome = inactive
CFAP206 [SID131510998] — two-siRNA summed score (-2 to +2) = 0; mean protection from cisplatin (shift in death) (%) = 3.9; Outcome = inactive
TRAPPC2L [SID131506649] — two-siRNA summed score (-2 to +2) = 0; mean protection from cisplatin (shift in death) (%) = -1.2; Outcome = inactive
LOC442469 [SID131518527] — two-siRNA summed score (-2 to +2) = 0; mean protection from cisplatin (shift in death) (%) = 21; Outcome = inactive
RNPEPL1 [SID131516066] — two-siRNA summed score (-2 to +2) = 0; mean protection from cisplatin (shift in death) (%) = 10.2; Outcome = inactive
LOC442570 [SID131510284] — two-siRNA summed score (-2 to +2) = 0; mean protection from cisplatin (shift in death) (%) = 3.1; Outcome = inactive
GPR22 [SID131515513] — two-siRNA summed score (-2 to +2) = 0; mean protection from cisplatin (shift in death) (%) = 9.3; Outcome = inactive
PRP4K [SID131506675] — two-siRNA summed score (-2 to +2) = 0; mean protection from cisplatin (shift in death) (%) = -1.1; Outcome = inactive
MAP6 [SID131521175] — two-siRNA summed score (-2 to +2) = 1; mean protection from cisplatin (shift in death) (%) = 12.5; Outcome = inactive
